From article PMC11432932 come the findings set out here.

No constants are given. Whether binding was seen depends on the method and setting. A result given as binding can be weak or reduced; the word gives no strength. Sequences can lack the tags named with a protein.

In the test the target is EXO70E1 (in pGBKT7) (Arabidopsis) (UniProt Q9LIA2). The test is described as follows: two-hybrid; bait in pGBKT7, prey in pGADT7, Gold Yeast Y2H; growth on SD/(-Trp-Leu-His-Ade) (QDO) medium for 3 days.

B1: AD-BOI (protein, UniProt O81851 1-304)
chain: MAVQAHHMNIFSQFISPNRDCVKFQENMNHGEFEFTGGEVPLITGESFAVEPLAAKANFNKAESGLSYNFTVPPLSTKRQRDFQFSDSNAPVKRRSVAFDSSSPSLINVELVSQIQNQQQSEIDRFVAQQTEKLRIEIEARQQTQTRMLASAVQNVIAKKLKEKDDEIVRIRNLNWVLQERVKSLYVENQIWRDIAQTNEANANTLRTNLDQVLAQLETFPTASAVVEDDAESSCGSCCGDGGGEAVTAVGGGCKRCGEREASVLVLPCRHLCLCTVCGGSALLRTCPVCDMVMNASVHVNMSS
For B1, the binding result was “binds”.
